Laboratory results: publication PMC6165534, “Inhibition of Homophilic Interactions and Ligand Binding of the Receptor for Advanced Glycation End Products by Heparin and Heparin-Related Carbohydrate Structures” (Medicines, 2018)
No constants are given. Whether binding was seen depends on the method and setting. For some assays here: Binding seen in cells or lysates may run through a third protein. Some entries that bind do so weakly or less than the wild type.

Chains of the proteins cited; added tags and fusions are not shown. Lines headed by an entry give the natural chain unless they say otherwise; changes in a name come on top. Residues count along the entry.
UniProt Q15109: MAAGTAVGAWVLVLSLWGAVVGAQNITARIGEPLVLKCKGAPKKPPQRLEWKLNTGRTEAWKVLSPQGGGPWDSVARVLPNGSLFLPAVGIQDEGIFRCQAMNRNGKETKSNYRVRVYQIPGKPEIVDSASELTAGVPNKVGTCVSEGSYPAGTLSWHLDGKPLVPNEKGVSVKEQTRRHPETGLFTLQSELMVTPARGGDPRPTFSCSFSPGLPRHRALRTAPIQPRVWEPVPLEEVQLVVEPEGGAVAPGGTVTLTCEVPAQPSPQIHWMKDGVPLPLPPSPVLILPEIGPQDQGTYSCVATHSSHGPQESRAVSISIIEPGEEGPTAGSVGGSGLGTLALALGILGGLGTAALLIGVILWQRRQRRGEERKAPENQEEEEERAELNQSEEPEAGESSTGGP
Full length extracellular human RAGE (sRAGE) Ig-fusion protein: residues 28-331 of Q15109
UniProt P63159: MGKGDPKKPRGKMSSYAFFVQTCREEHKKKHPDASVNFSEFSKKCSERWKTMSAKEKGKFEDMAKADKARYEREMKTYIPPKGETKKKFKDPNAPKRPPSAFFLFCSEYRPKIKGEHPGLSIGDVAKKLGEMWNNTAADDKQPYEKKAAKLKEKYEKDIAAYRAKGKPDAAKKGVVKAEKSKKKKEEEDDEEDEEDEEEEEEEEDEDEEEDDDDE

Assays:
[1] = biological target: Full length extracellular human RAGE (sRAGE) Ig-fusion protein (human) (UniProt Q15109); experiment: ELISA; sRAGE Ig-fusion protein (5 mg/mL as printed) bound to protein A coated Maxisorb wells, blocked with BSA; biotinylated ligand 20 nM with or without carbohydrate inhibitors; streptavidin-HRP, absorbance at 490 nm; both purified
[2] = biological target: Full-length RAGE–cytoplasmic hGLuc fragment chimera (UniProt Q15109); experiment: split reporter; live-cell protein-fragment complementation assay (PCA): cells transfected with full-length RAGE fused to complementary hGLuc fragments, luminescence 48 h after transfection in serum-free DMEM; with or without heparin (partial inhibition)

binding [1] | binding [2] | Substance
binds | – | Biotinylated recombinant HMGB1 (from UniProt P63159 1-215) (ligand)
– | binds | Full-length RAGE–cytoplasmic hGLuc fragment chimera (from UniProt Q15109 23-404) (receptor)
